Construct, isoform or probe ends are uncertain for at least one entry. Weaker means in comparison with the reference protein, sequence or condition of that experiment. Where a protein sequence is shown, tags need not be part of it.
Tested on: T1, SmTGA5 (Salvia miltiorrhiza)
T1 sequence (looked up, limits assumed): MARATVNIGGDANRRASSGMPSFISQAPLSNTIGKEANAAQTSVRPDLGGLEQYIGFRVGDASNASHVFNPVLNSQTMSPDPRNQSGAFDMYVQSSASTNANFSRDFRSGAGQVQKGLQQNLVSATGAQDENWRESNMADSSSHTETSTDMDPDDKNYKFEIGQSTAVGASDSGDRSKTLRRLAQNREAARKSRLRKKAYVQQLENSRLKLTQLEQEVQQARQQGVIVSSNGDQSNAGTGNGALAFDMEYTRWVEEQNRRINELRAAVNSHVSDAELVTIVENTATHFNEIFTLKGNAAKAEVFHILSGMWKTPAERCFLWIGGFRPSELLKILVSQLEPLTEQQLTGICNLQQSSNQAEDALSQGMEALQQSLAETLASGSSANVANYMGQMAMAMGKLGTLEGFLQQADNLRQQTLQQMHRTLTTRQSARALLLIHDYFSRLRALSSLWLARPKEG
Assay: EMSA
Conditions: SmNPR4 (P2) added, attenuates SmTGA5 binding; Beyotime GS009 EMSA kit, 20-25 C, 20 min, acrylamide gel; salt and pH not stated; recombinant protein; protein details: His (pET32a, N-terminal fusion)

Question: Does “TTTAAAGTGACGTGTATCATTTAAAGTGACGTGTATCATTTAAAGTGACGTGTATCA (double strand) [Probe-pTAT1 (3x as-1)]” bind?
Answer: Result: binds more weakly

Reference: paper PMC10208894, “The SmNPR4-SmTGA5 module regulates SA-mediated phenolic acid biosynthesis in Salvia miltiorrhiza hairy roots”
